# Most values lie at the floor of the assay. Slopes are relative: functional sequences can read slightly below zero.
# Tested on: Saccharomyces cerevisiae PS128 hsf1 delta, HSF1(1-493) fusion
# Test: growth estimate (transactivation domain function in HSF1 fusion, heat-shock survival) (a.u. (slope of normalised read count over time)); higher = stronger growth at 37°C, i.e. more transactivation activity
# Settings: library: random library
row,Substance,growth estimate
1,LSTGTGKVFLIYLHLLC,< -0.25
2,LSTLLPYWLRVFC,-0.197
3,LSTMGGIACRHCA,< -0.25
4,LSTMMSGSNEFRPEFHQGCD,< -0.25
5,LSTQRAIPGRRC,-0.248
6,LSTREVYTWHNG,< -0.25
7,LSTSTIYSV,< -0.25
8,LSTVQMKG,< -0.25
9,LSVKLRSSTVTQLFVNSVRL,< -0.25
10,LSVPNAALSGGWFGALPPPC,< -0.25
11,LSVRLRG,< -0.25
12,LSWAVTDVYCTERNISSIVR,< -0.25
13,LSWLLP,< -0.25
14,LSYFWLIWVRG,< -0.25
15,LSYVL,< -0.25
16,LSYYPEVHAGSWTPISIRNY,< -0.25
17,LTAGKIGSSSVGQK,< -0.25
18,LTAGNERIEVYGHPTSPDRG,< -0.25
19,LTAKESILCYTDGGSRLVES,< -0.25
20,LTANISQRSRFTKSSFLWGG,< -0.25
21,LTAPAV,< -0.25

row,Substance,growth estimate
1,LTCPATEVTGRSY,< -0.25
2,LTDEATQIFRWQS,< -0.25
3,LTDITPAHRVRSQALASRGN,< -0.25
4,LTDVILIHNLQCPRVRHHEP,< -0.25
5,LTFQCR,< -0.25
6,LTGFGRSTSGRRKWDI,< -0.25
7,LTGGARGHVKHDQEGRTAAA,< -0.25
8,LTGINESGEKVTVLLHVIYS,< -0.25
9,LTGKYQTGQASWFTCKSRSE,< -0.25
10,LTHMRKERPDGIALPHGIAT,< -0.25
11,LTHNDVYYLWRYQ,< -0.25
12,LTIEL,< -0.25
13,LTIRHLTQIELLPG,< -0.25
14,LTIVFPCSVKGCDPAVARYR,< -0.25
15,LTIYRY,< -0.25
16,LTKQ,< -0.25
17,LTL,< -0.25
18,LTLMECLQ,< -0.25
19,LTLVIQSKKLRTDVGLRY,< -0.25
20,LTLWPWQVR,< -0.25
21,LTNQAKRFVPLDVGITGIPL,< -0.25

row,Substance,growth estimate
1,LTNRKVR,< -0.25
2,LTNWSLKVRLPGCKQSNRDL,< -0.25
3,LTPVTSRMLCVLSVLKGPTT,< -0.25
4,LTQDMLRGFFRGPVVQRTEF,< -0.25
5,LTRFHRHLLDST,< -0.25
6,LTRMVSSRTRALPDARVARR,< -0.25
7,LTRRPLIGTVRGTVKV,< -0.25
8,LTRSSFADKSVMLFISVFQP,< -0.25
9,LTSASQEHATSIVLPKDRG,< -0.25
10,LTSDLGVEAPGVYRRPIQGR,-0.213
11,LTSFGQPVIVA,< -0.25
12,LTSQL,< -0.25
13,LTTLRTGTKG,< -0.25
14,LTTSVVG,< -0.25
15,LTVEKRG,< -0.25
16,LTVHTRMVGHNVQLIGRHIL,< -0.25
17,LTVRSR,< -0.25
18,LTVYSKVQLLFNLYILSKRP,< -0.25
19,LTYLESLGGLLRS,< -0.25
20,LTYRERGDMR,< -0.25
21,LVAERGTLEQTLNVRCKSYL,< -0.25

# No new results follow: entries from further up.
row,Substance,growth estimate
1,LTNRKVR,< -0.25
2,LTNWSLKVRLPGCKQSNRDL,< -0.25
3,LTPVTSRMLCVLSVLKGPTT,< -0.25
4,LTQDMLRGFFRGPVVQRTEF,< -0.25
5,LTRFHRHLLDST,< -0.25
6,LTRMVSSRTRALPDARVARR,< -0.25

# Additional records.

row,Substance,growth estimate
1,LVAEVKWGATVTTSPPALNN,< -0.25
2,LVAGKIPS,< -0.25
3,LVAKGHGVRATAGSTCPV,< -0.25
4,LVARDYVHSFKTDCGLGNRS,< -0.25
5,LVCHCGFHRL,< -0.25
6,LVCKGSKWC,< -0.25
7,LVCWGSPLCCRQIQ,< -0.25
8,LVDCIKSL,< -0.25
9,LVDYLLDMAFKRHSNLWGAS,< -0.25
10,LVELPPGVI,< -0.25
11,LVFCT,< -0.25
12,LVFLSNGPRK,< -0.25
13,LVFTGRM,< -0.25
14,LVGGFGRLNSDSAPG,< -0.25
15,LVGGYSPL,< -0.25
16,LVGHGRGA,< -0.25
17,LVGHSER,< -0.25
18,LVGNWDKNEDCHDFRTAFW,-0.115
19,LVGRMNNSRTEAKMYGHEGR,< -0.25

# Reference: the supplement of paper PMC5949888
